Source: publication PMC10682000
No constants are given. Whether binding was seen depends on the method and setting. In cells and extracts the contact can be indirect. Some results given as binding are weak or reduced against the parent protein; the word gives no strength.

Protein sequences, listed by entry. Tags and fused reporters are not part of them.
UniProt P25490: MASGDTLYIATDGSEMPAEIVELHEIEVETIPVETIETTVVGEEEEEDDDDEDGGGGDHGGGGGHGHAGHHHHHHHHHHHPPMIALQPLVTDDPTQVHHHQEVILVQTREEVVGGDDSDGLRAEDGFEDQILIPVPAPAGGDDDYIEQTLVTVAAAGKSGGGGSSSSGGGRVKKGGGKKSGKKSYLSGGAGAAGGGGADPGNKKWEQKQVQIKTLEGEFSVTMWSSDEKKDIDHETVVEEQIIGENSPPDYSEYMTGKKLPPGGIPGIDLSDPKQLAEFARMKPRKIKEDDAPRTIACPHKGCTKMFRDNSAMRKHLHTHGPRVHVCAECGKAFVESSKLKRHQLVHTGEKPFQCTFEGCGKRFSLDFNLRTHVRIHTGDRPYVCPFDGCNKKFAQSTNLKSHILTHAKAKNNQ

B1: ΔNp63α (protein, UniProt Q9H3D4-2 1-586)
chain: MLYLENNAQTQFSEPQYTNLGLLNSMDQQIQNGSSSTSPYNTDHAQNSVTAPSPYAQPSSTFDALSPSPAIPSNTDYPGPHSFDVSFQQSSTAKSATWTYSTELKKLYCQIAKTCPIQIKVMTPPPQGAVIRAMPVYKKAEHVTEVVKRCPNHELSREFNEGQIAPPSHLIRVEGNSHAQYVEDPITGRQSVLVPYEPPQVGTEFTTVLYNFMCNSSCVGGMNRRPILIIVTLETRDGQVLGRRCFEARICACPGRDRKADEDSIRKQQVSDSTKNGDGTKRPFRQNTHGIQMTSIKKRRSPDDELLYLPVRGRETYEMLLKIKESLELMQYLPQHTIETYRQQQQQQHQHLLQKQTSIQSPSSYGNSSPPLNKMNSMNKLPSVSQLINPQQRNALTPTTIPDGMGANIPMMGTHMPMAGDMNGLSPTQALPPPLSMPSTSHCTPPPPYPTDCSIVSFLARLGCSSCLDYFTTQGLTTIYQIEHYSMDDLASLKIPEQFRHAIWKGILDHRQLHEFSSPSHLLRTPSSASTVSVGSSETRGERVIDAVRFTLRQTISFPPRDEWNDFNFDMDARRNKQQRIKEEGE

Columns and labels:
[1] = molecular target: T1, ΔNp63α (human) (UniProt Q9H3D4); assay: co-IP; whole cell lysates (RIPA lysis buffer with protease inhibitors) of RBE_vector vs. RBE_over cells; incubated with anti-ΔNp63, anti-YY1 or IgG overnight at 4 °C, protein A/G magnetic beads 1 h at room temperature, washed six times with RIPA buffer; western blot
T1 sequence: B1 chain

[2] = molecular target: YY1 (human (endogenous in RBE)) (UniProt P25490); assay: as above

Molecule | binding [1] | binding [2]
YY1 (from UniProt P25490 1-414) | binds | –
B1 | – | binds
